The nature of the data set: general procedure: peptide synthesis; chloro trityl chloride resin (CTL resin, Nova Biochem Cat No. 01-64-0021). Conditions: whole synthesis; for crude yield: scale of the general procedure 700 mg resin.

Substance “H-CPRHFNPVC-OH (cysteine pairing not given here)” came in with a crude mass of 0.7 g and a crude yield of 95%.

For “H-CTKIYDPVC-OH (cysteine pairing not given here)”, the crude mass amounted to 0.5 g and the crude yield is 95%.

The values above are taken from US10487113B2 (CAREGEN CO., LTD., priority 2014, dated 2019).
